Experimental data taken from PubChem BioAssay AID1347075 (National Center for Advancing Translational Sciences (NCATS), 2019).
In all, about 400,000 compounds went through this assay and about 5,500 (1.4%) were called active. The shares of active, inactive and inconclusive entries below differ from those in the screen. The call rests on the fitted dose curve; in most records, active means well fitted cell-killing curve with a large enough effect; inconclusive means small, poorly fitted or top-dose-only effect, or effect the other way; inactive means flat fitted curve, though single readings scatter. A potency beside an inconclusive call is a rough fit, not a confirmed value.

Experiment: qHTS assay for MDR1-selective chemotherapeutics: Primary screen using the parental adenocarcinoma cell KB-3-1; further: nearly all actives have a fitted effect of over 60% in size
Conditions: KB-3-1 viability, CellTiter-Glo ATP luminescence, 72 h; activity change, negative = cytotoxic: at 46.1 µM (top of the series)
How it was run: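 72 h, 37 °C compound treatment of KB-3-1 parental cells; CellTiter-Glo added, 10 min, luminescence read. Data corrected against DMSO-only plates and normalized before curve fitting.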
On the % scale 0 is the no-effect control and ±100 the full control effect; potency means the concentration at half of the fitted maximal effect.

Q: For `CCOc1cc(/C=C/C(=O)Nc2ccc(C(=O)NCCN(CC)CC)cc2)ccc1OCC(C)C`, which Potency is on record?
A: active: 18.4 µM

Q: For `COc1ccc(-c2nnc(NC(=O)c3ccccc3C)o2)cc1`, which Potency is on record?
A: inconclusive: 29.1 µM [cytotoxic, single point]

Q: For `CC1=Nc2cc(C(=O)NCCCN3CCOCC3)ccc2Sc2c(C)ccc(C)c21`, which Potency is on record?
A: inconclusive: 0.651 µM [cytotoxic, full curve, poor fit]

Q: For `Cc1cc(C)n(-c2ccc(NC(=O)C3CCCCN3C(=O)c3cc(C)oc3C)cc2)n1` (configuration not stated), which Potency is on record?
A: inconclusive: 5.17 µM [cytotoxic, partial curve, poor fit]

Q: For `O=C(COc1ccc(Cl)cc1Cl)N(c1ccccn1)C1CCCCC1`, which Potency is on record?
A: inconclusive: 29.1 µM [cytotoxic, single point]

Q: Which “activity change, negative = cytotoxic” value does the source give for `COc1ccccc1/C=C1/SC(=S)N(CCC(=O)Nc2cccnc2)C1=O` here?
A: inactive: -19.1%

Q: For `CCc1ccc(NC(=O)COC(=O)C2(c3ccc(Cl)cc3)CCCC2)cc1`, which Potency is on record?
A: inconclusive: 29.1 µM [cytotoxic, single point]

Q: Which “activity change, negative = cytotoxic” value does the source give for `CCCCn1c(N)c(N(CC)C(=O)c2c(C)noc2C)c(=O)[nH]c1=O` here?
A: inactive: 1.38%

Q: With `COc1cc(CNC(=O)c2cccc(COc3ccc(Cl)cc3)c2)cc(OC)c1` as the compound, how does the Potency read?
A: inconclusive: 18.4 µM [cytotoxic, partial curve]

Q: With `COc1cc(CN2CCCC(C(=O)Nc3cccc(-n4cccn4)c3)C2)ccc1F` (configuration not stated) as the compound, how does the “activity change, negative = cytotoxic” value read?
A: inactive: -21%

Q: For `O=C(CCCn1c(=S)[nH]c2cc3c(cc2c1=O)OCO3)N1CCN(c2ncccn2)CC1`, which Potency is on record?
A: inconclusive: 3.26 µM [rising, partial curve, poor fit]

Q: Which “activity change, negative = cytotoxic” value does the source give for `Cc1ccc(CC(=O)Nc2ccc(Cl)cn2)cc1` here?
A: inactive: 3.31%

Q: For `CCN(CC)CCNC(=O)c1ccc(NS(=O)(=O)c2ccc3c(c2)OCCO3)cc1`, which “activity change, negative = cytotoxic” value is on record?
A: inactive: 2.07%

Q: For `Cc1ccc(S(=O)(=O)N=N/C=C2\C=CC=CN2O)cc1`, which Potency is on record?
A: inconclusive: 29.1 µM [rising, single point]

Q: For `CCCNC(=O)C1(C)CCN(Cc2ccc(C(=O)OCC)cc2)C1` (configuration not stated), which “activity change, negative = cytotoxic” value is on record?
A: inactive: 0%

Q: Which Potency does the source give for `COc1ccc(NC(=O)/C(C#N)=C/C=C/c2ccco2)cc1` here?
A: active: 7.31 µM

Q: For `CCC(C)NC(=O)CCn1c(=O)c2cccn2c2ccc(F)cc21` (configuration not stated), which “activity change, negative = cytotoxic” value is on record?
A: inactive: 1.49%

Q: With `Cc1nn(C)c(C)c1S(=O)(=O)N1CCCC(C(=O)N2CCN(c3ccc(Cl)cc3)CC2)C1` (configuration not stated) as the compound, how does the Potency read?
A: active: 18.4 µM

Q: With `COCO/C=C(\NC(C)=O)c1ccccc1` as the compound, how does the Potency read?
A: inconclusive: 25.9 µM [rising, single point]

Q: For `CN(C)c1cccc(C(=O)NNC(=O)/C=C/c2cccs2)c1`, which Potency is on record?
A: inconclusive: 29.1 µM [cytotoxic, single point]

Q: For `CN(CCCn1ccc(N)nc1=O)Cc1ccco1`, which Potency is on record?
A: inconclusive: 11.6 µM [rising, partial curve, poor fit]

Q: With `CCn1c(/C=C/Nc2ccccc2)[n+](CC)c2ccc(Cl)cc21` as the compound, how does the Potency read?
A: inconclusive: 23.1 µM [cytotoxic, single point]

Q: With `COc1cccc(NC(=O)C2(C)CCCN2C(=O)C(C)C)c1OC` (configuration not stated) as the compound, how does the “activity change, negative = cytotoxic” value read?
A: inactive: -0.0165%

Q: For `Cc1cc(C)c(C#N)c(SCCS(=O)(=O)Cc2ccc(Cl)cc2)n1`, which Potency is on record?
A: inconclusive: 29.1 µM [cytotoxic, single point]

Q: For `O=C(O)C(Cc1ccnc2ccccc12)=NO`, which Potency is on record?
A: inconclusive: 32.6 µM [rising, single point]

Q: Which “activity change, negative = cytotoxic” value does the source give for `Cn1c(SCc2c(Cl)cccc2Cl)nnc1-c1ccc2nonc2c1` here?
A: inactive: 2.69%

Q: With `CN(C)c1c2ccccc2nc2c(F)c(F)c(F)c(F)c12` as the compound, how does the “activity change, negative = cytotoxic” value read?
A: inactive: -22.2%

Q: With `Cc1ccc(OCCn2cc(C(=S)N3CCCC3)c3ccccc32)cc1C` as the compound, how does the Potency read?
A: active: 5.8 µM

Q: Which “activity change, negative = cytotoxic” value does the source give for `Nc1ccc(C(=O)N2CCCC2)cc1` here?
A: inactive: -4.36%

Q: For `Cc1cccc(Nc2cc(=O)[nH]c(=O)[nH]2)c1`, which Potency is on record?
A: inconclusive: 8.2 µM [rising, partial curve, poor fit]

Q: Which Potency does the source give for `C=CCCC(=O)Nc1nc(C)c(-c2csc(Nc3ccc(Cl)cc3Cl)n2)s1` here?
A: inconclusive: 29.1 µM [cytotoxic, single point]

Q: Which “activity change, negative = cytotoxic” value does the source give for `CC1(C(=O)Nc2ccc(Cl)c(Cl)c2)CCN1C(=O)CC1CCCC1` (configuration not stated) here?
A: inactive: -5.67%

Q: With `COc1ccc(NC(=O)COc2ncnc3ccccc23)cc1S(=O)(=O)N1CCOCC1` as the compound, how does the Potency read?
A: inconclusive: 29.1 µM [rising, single point]

Q: With `COc1ccc(C(=O)NC(C)c2csc(C)n2)cc1OC1CCN(C(C)=O)CC1` (configuration not stated) as the compound, how does the Potency read?
A: inconclusive: 29.1 µM [rising, single point]

Q: Which Potency does the source give for `Cc1ccc2c(c1)cc(C(=O)Nc1ccc(F)cc1F)n2C` here?
A: inconclusive: 3.26 µM [cytotoxic, full curve]

Q: With `CCOC(=O)c1c(NC(=O)C(=O)N/N=C/c2ccccc2OC)sc2c1CCCCC2` as the compound, how does the Potency read?
A: inconclusive: 13 µM [rising, partial curve, poor fit]

Q: With `CCCCNC(=S)N/N=C/C1=CCC2CC1C2(C)C` (configuration not stated) as the compound, how does the Potency read?
A: inconclusive: 32.6 µM [cytotoxic, single point]

Q: Which “activity change, negative = cytotoxic” value does the source give for `O=C(Cc1cc(=O)[nH][nH]1)N/N=C/c1c(F)cccc1Cl` here?
A: inactive: -6.9%

Q: For `O=C(Nc1ccc([N+](=O)[O-])cc1)Nc1ccon1`, which Potency is on record?
A: active: 0.58 µM

Q: Which Potency does the source give for `C[C@H](CO)N1C[C@H](C)[C@H](CN(C)Cc2ccccc2)Oc2c(NC(=O)Nc3ccc(F)cc3)cccc2C1=O` here?
A: inconclusive: 18.4 µM [cytotoxic, partial curve, poor fit]

Q: For `CCC(C)[C@H](NC(=O)N1CCn2c1nc1ccccc12)C(=O)NCCc1ccccc1` (some centres not stated), which Potency is on record?
A: inconclusive: 14.6 µM [cytotoxic, single point]

Q: With `Cc1ccc(OCCSc2ncccn2)c(C)c1` as the compound, how does the Potency read?
A: inconclusive: 16.4 µM [cytotoxic, single point]

Q: With `Cc1nc2nc(NCc3cccc(Br)c3)[nH]n2c(=O)c1Cc1ccccc1` as the compound, how does the “activity change, negative = cytotoxic” value read?
A: inactive: -16.3%

Q: With `O=[N+]([O-])c1cc(O)c2ncccc2c1` as the compound, how does the Potency read?
A: inconclusive: 11.6 µM [cytotoxic, partial curve, poor fit]

Q: For `COc1ccc(C2Nc3ccccc3C(=O)N2Cc2ccco2)cc1CN1C(=O)c2ccccc2C1=O` (configuration not stated), which activity change, negative = cytotoxic is on record?
A: inconclusive: 19%

Q: For `CC(=O)Nc1ccc(/C=N/Nc2nc3ccccc3[nH]2)cc1`, which Potency is on record?
A: active: 23.1 µM

Q: With `CCCCn1c(NS(=O)(=O)c2ccc(C)cc2)c(S(=O)(=O)c2ccccc2)c2nc3ccccc3nc21` as the compound, how does the Potency read?
A: inconclusive: 18.4 µM [cytotoxic, single point]

Q: Which “activity change, negative = cytotoxic” value does the source give for `Cc1ccc(C2C(C#N)=C(N)Oc3cc(N)ccc32)cc1` (configuration not stated) here?
A: inactive: -15.3%

Q: Which Potency does the source give for `COc1cc2ccccc2cc1C(=O)Nc1cccc(-c2nc3cc(C)c(C)cc3o2)c1C` here?
A: inconclusive: 9.2 µM [rising, partial curve, poor fit]

Q: Which “activity change, negative = cytotoxic” value does the source give for `O=C(CN1C(=O)c2cccnc2Oc2ccc(Cl)cc21)NC1CCCC1` here?
A: inactive: -26.9%

Q: With `CCc1ccccc1NC(=O)N1CCN(c2cc(-c3noc(C)n3)ccc2C)CC1` as the compound, how does the “activity change, negative = cytotoxic” value read?
A: inactive: 21.9%

Q: Which “activity change, negative = cytotoxic” value does the source give for `Cc1ccc(CN(C(=O)COc2cccc([N+](=O)[O-])c2)c2ccccn2)o1` here?
A: inactive: -23.9%

Q: For `COc1ccc(-c2cc3cc(-c4cc(OC)c(OC)c(OC)c4)ccc3o2)cc1`, which “activity change, negative = cytotoxic” value is on record?
A: inactive: 4.19%

Q: Which Potency does the source give for `COc1cc(/C=C2\Oc3ccc(C#Cc4ccc(O)cc4)cc3C2=O)cc(OC)c1` here?
A: active: 16.4 µM

Q: For `CCOC(=O)c1c(C)[nH]c(C(=O)N/N=C/c2cc([N+](=O)[O-])ccc2O)c1C`, which Potency is on record?
A: active: 11.6 µM

Q: Which “activity change, negative = cytotoxic” value does the source give for `CNc1nc(N)c([N+](=O)[O-])c(Nc2ccccc2OC)n1` here?
A: inactive: -2.48%

Q: For `OC1CC2CCC(C1)N2CCCN1c2ccccc2Sc2ccc(Cl)cc21` (configuration not stated), which Potency is on record?
A: inconclusive: 29.1 µM [cytotoxic, single point]

Q: With `O=C(Cn1cc(F)c(=O)[nH]c1=O)c1ccco1` as the compound, how does the “activity change, negative = cytotoxic” value read?
A: inactive: -11.9%

Q: Which Potency does the source give for `COc1cccc(C(=O)N(C)c2nnc(-c3ccncc3)s2)c1` here?
A: inconclusive: 2.31 µM [cytotoxic, full curve, poor fit]

Q: With `Cc1ccc(Nc2nnc(SCc3cc(=O)n4ccsc4n3)s2)c(C)c1` as the compound, how does the Potency read?
A: inconclusive: 29.1 µM [rising, single point]

Q: With `COc1ccccc1Oc1cc(-n2nc(C)cc2C)ncn1` as the compound, how does the activity change, negative = cytotoxic read?
A: inconclusive: -3.4%

Q: With `Cc1ccc(S(=O)(=O)N2CCN(C(=O)c3cc4c(s3)CCC(C)C4)CC2)cc1` (configuration not stated) as the compound, how does the “activity change, negative = cytotoxic” value read?
A: inactive: 8.04%

Q: Which Potency does the source give for `COc1ccc(OC)c(CNC(=O)CCCn2ccc3cc(S(=O)(=O)N4CCCC4)ccc32)c1` here?
A: inconclusive: 29.1 µM [cytotoxic, single point]

Q: With `S=c1[nH]nc(CSCc2ccccc2Cl)n1C1CCCCC1` as the compound, how does the Potency read?
A: inconclusive: 18.4 µM [cytotoxic, single point]

Q: Which Potency does the source give for `COc1ccc(N2C(=O)N3[C@H](c4ccc(Cl)cc4)[C@@H]4C(=O)N(C5CCCCC5)C(=O)[C@@H]4[C@]3(C)C2=O)cc1` here?
A: inconclusive: 18.4 µM [cytotoxic, single point]

Q: For `COCCN(C(=O)COC(=O)CNC(=O)c1cccs1)c1c(N)n(Cc2ccccc2)c(=O)[nH]c1=O`, which “activity change, negative = cytotoxic” value is on record?
A: inactive: 19.4%

Q: With `C[C@@H]1C(c2ccccc2)=NN(c2ccc(Br)cc2)[C@H]1C(=O)N1CCOC1=O` as the compound, how does the Potency read?
A: inconclusive: 0.0073 µM [rising, full curve]

Q: For `Nc1nc(=S)c2[nH]c(=S)[nH]c2[nH]1`, which Potency is on record?
A: inconclusive: 23.1 µM [cytotoxic, single point]

Q: Which Potency does the source give for `CN(Cc1cc(Cl)cc(Cl)c1)CC(C(=O)c1ccccc1)c1ccccc1` (configuration not stated) here?
A: inconclusive: 6.51 µM [cytotoxic, full curve, poor fit]

Q: For `CCN(CC(=O)Nc1ccc(NC(C)=O)cc1)C(=O)/C=C/c1ccc2c(c1)OCO2`, which Potency is on record?
A: inconclusive: 25.9 µM [rising, partial curve, poor fit]

Q: Which Potency does the source give for `CCOC(=O)N1CCC(NC(=O)c2ccc3c(c2)N=C(C)c2c(C)ccc(C)c2S3)CC1` here?
A: active: 2.06 µM

Q: For `COc1ccc(OC)c(CN2CCN(C(=O)c3cccc(S(=O)(=O)Nc4ccc(F)cc4)c3)CC2)c1`, which Potency is on record?
A: inconclusive: 29.1 µM [cytotoxic, single point]
